No constants are given. Whether binding was seen depends on the method and setting. Binding seen in cells or lysates may run through a third protein. Some binding calls cover weakened binding; strength is not graded here.
What was measured:
[1] = molecular target: T1, Control peptide from the N-terminus of Gemin4 (amino acids 78-86), biotinylated; assay: pull-down; biotinylated peptide as bait (Pierce Biotinylated Protein Interaction Kit, avidin/streptavidin) with LNCaP cell lysate, steady state or 24 h 10 nM R1881 or ethanol; western blot; only the target purified
T1 sequence (peptide, biotin): LQPHPVTPS

Sequences of proteins named here, by UniProt entry; tags and fusion partners are left off. A change or cut given only in a name is not applied to a line headed by its entry. A line that says so, or that is headed by a name, gives the form on record, which may keep a tag or linker. Residues count along the entry.
UniProt P57678: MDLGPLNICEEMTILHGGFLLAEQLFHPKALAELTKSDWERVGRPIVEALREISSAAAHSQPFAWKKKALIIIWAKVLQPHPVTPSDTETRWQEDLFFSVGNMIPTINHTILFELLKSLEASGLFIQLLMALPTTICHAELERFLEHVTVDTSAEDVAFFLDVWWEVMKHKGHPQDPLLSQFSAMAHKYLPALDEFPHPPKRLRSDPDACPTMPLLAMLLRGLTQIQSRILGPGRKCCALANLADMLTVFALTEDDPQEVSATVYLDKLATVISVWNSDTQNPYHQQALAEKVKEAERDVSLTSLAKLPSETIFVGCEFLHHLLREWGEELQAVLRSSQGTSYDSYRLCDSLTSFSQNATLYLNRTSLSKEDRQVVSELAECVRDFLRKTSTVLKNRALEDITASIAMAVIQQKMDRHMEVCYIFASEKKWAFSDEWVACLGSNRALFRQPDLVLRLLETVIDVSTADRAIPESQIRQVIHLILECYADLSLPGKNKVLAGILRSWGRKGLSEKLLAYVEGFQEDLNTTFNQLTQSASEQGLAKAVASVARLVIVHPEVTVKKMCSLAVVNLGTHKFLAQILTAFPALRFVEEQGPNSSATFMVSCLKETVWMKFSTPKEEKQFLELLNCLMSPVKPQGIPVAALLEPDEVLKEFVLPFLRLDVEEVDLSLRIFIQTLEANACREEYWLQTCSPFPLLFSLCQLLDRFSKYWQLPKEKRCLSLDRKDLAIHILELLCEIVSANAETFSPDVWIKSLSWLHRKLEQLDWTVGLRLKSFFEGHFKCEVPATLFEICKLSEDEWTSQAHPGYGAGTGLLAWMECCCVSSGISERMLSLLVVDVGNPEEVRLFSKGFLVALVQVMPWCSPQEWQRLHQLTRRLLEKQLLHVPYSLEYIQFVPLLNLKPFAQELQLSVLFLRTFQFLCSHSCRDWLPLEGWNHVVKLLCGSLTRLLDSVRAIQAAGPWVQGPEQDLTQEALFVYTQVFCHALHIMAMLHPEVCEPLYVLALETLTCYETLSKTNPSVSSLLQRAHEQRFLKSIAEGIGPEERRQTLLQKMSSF
GST-tagged Gemin4 (amino acids 1-370): residues 1-370 of P57678
UniProt Q96RR4: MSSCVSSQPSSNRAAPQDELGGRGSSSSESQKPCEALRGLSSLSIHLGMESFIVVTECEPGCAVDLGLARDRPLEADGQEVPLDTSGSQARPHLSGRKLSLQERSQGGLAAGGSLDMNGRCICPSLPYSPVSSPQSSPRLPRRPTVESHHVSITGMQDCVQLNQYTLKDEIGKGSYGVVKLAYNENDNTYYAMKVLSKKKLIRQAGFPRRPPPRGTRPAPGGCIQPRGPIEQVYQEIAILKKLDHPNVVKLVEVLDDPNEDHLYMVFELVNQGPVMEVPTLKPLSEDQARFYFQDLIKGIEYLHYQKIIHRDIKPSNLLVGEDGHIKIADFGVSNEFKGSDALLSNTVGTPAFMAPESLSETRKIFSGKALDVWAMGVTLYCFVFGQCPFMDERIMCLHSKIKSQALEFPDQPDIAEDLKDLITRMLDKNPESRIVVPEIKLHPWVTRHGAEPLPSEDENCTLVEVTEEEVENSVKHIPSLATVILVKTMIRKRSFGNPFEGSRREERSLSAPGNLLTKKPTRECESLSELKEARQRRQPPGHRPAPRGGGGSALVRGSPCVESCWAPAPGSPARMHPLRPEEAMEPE
UniProt Q9UHI6: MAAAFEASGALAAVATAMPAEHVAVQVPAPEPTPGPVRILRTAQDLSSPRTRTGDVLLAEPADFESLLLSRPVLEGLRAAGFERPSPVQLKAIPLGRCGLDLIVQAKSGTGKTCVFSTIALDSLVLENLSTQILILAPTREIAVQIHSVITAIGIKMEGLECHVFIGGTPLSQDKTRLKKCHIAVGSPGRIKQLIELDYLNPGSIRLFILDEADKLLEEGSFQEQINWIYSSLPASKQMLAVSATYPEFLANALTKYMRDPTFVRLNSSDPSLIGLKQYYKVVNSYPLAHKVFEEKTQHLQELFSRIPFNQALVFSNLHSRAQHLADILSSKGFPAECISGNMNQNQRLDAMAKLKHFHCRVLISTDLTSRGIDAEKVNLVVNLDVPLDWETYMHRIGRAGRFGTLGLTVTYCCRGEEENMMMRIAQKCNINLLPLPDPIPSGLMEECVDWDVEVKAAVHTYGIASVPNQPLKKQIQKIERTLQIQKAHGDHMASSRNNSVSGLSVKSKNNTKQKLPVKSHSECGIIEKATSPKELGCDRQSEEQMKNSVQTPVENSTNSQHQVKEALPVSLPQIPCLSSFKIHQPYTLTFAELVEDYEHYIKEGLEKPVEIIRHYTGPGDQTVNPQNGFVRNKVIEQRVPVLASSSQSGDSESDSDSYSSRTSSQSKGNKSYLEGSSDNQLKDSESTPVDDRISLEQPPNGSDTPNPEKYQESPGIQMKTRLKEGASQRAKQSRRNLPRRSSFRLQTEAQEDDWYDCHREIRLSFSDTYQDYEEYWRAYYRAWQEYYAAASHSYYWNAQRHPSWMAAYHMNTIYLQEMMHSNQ

[2] = molecular target: GST-tagged Gemin4 (amino acids 1-370) (UniProt P57678); assay: pull-down; recombinant GST-tagged Gemin4 (aa 1-370) or equal amount of GST incubated with LNCaP cell lysate; CaMKK2 detected by western blot; only the target purified
[3] = molecular target: Gemin4, endogenous in LNCaP cells (human (endogenous in LNCaP)) (UniProt P57678); assay: co-IP; IPs of Gemin/SMN-1, -3, -4, CaMKK2 looked for in the precipitates (Supplementary Fig. 1); cells not given
[4] = molecular target: Calcium/calmodulin-dependent protein kinase kinase 2 (CaMKK2), endogenous in LNCaP cells (human (endogenous in LNCaP)) (UniProt Q96RR4); assay: co-IP; endogenous CaMKK2 IP (2.5 µg CaMKK2 antibody, 500 µg pre-cleared LNCaP lysate, overnight 4 °C, Protein A Dynabeads); control IgG; western blot for Gemin proteins

Substance | binding [1] | binding [2] | binding [3] | binding [4]
Calcium/calmodulin-dependent protein kinase kinase 2 (CaMKK2), endogenous in LNCaP cells (from UniProt Q96RR4 1-588) | no binding | binds | binds | 
Gemin3/DDX20, endogenous in LNCaP cells (from UniProt Q9UHI6 1-824) | no binding |  |  | 
Gemin4, endogenous in LNCaP cells (from UniProt P57678 1-1058) | no binding |  |  | binds

Reference: paper PMC8560770
